According to PubChem BioAssay AID2685 (National Center for Advancing Translational Sciences (NCATS), 2010):
Some of the results follow. Further columns of the screen follow, without active or inactive calls. Most of these compounds were active or inconclusive in the main read-out, so they are no random draw. The note in brackets gives the kind of curve behind each potency; many fits are weak.

Assay: qHTS Assay for Lipid Storage Modulators in Drosophila S3 Cells;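 for cell number change: cells counted by Cell Tracker Red CMTPX staining in the red channel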
Settings: BODIPY lipid droplet fluorescence, 18-24 h; for cell number change: measured here: cell count max response, cells fed with added oleic acid
Outline: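 Drosophila S3 cells got compounds at several concentrations plus oleic acid (400 uM solution). Laser-scanning cytometry with 488 nm excitation read lipid droplets at 500-530 nm and cells at 575-640 nm. Percent activity was relative to 20 uM Triacsin C.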

[1] = measured here: cell number channel AC50, cells fed with added oleic acid
[2] = measured here: lipid fluorescence (Fed channel) AC50, cells fed with added oleic acid

Cc1cc(=O)[nH]c2ccc(Cl)cc12
cell number change: 37.9% | AC50 [1]: 5.8 µM [rising, single point]

O=C(CCl)N(c1ccccc1)C1CCCCC1
cell number change: -57.9% | AC50 [1]: 29.1 µM [falling, single point] | AC50 [2]: 16.4 µM [falling, single point]

COc1cc(C(=O)N/N=C/c2ccc(OC(=O)c3cccc(C)c3)cc2)ccc1O
cell number change: -44.6% | AC50 [1]: 18.4 µM [falling, partial curve, poor fit] | AC50 [2]: 29.1 µM [rising, partial curve, poor fit]

Cc1ccc(-n2nnnc2SCC(=O)Nc2c(C)n(C)n(-c3ccccc3)c2=O)cc1
cell number change: 37% | AC50 [1]: 25.9 µM [rising, single point] | AC50 [2]: 0.116 µM [falling, single point]

COc1ccc(OC)c(NC(=O)C2CC(C)=C(C)CC2C(=O)O)c1 (stereo not drawn)
cell number change: -17.6% | AC50 [2]: 8.2 µM [rising, partial curve, poor fit]

O=Cc1c(NCCCN2CCCC2=O)c2ccccc2[nH]c1=O
cell number change: 11.8% | AC50 [2]: 20.6 µM [rising, single point]

Cc1ccc(CNC(=O)c2cc(-c3ccccc3C)n(CC3CC(c4cccc([N+](=O)[O-])c4)=NO3)n2)cc1 (stereo not drawn)
cell number change: -13.2% | AC50 [2]: 0.82 µM [falling, full curve, poor fit]

CCN(CC)CCCNC(=O)CN1N=C(c2ccc(OC)cc2)CCC1=O
cell number change: 4.6% | AC50 [2]: 16.4 µM [rising, single point]

O=C(C1CCCN(c2ncnc3c2nc2n3CCCCC2)C1)N1CCN(c2ccccc2)CC1 (stereo not drawn)
cell number change: -58% | AC50 [1]: 29.1 µM [falling, single point] | AC50 [2]: 18.4 µM [falling, single point]

CN(CC(=O)Nc1ccc(Cl)c(Cl)c1)C(=O)C1CCCC1
cell number change: -13.3% | AC50 [1]: 0.164 µM [falling, full curve, poor fit] | AC50 [2]: 0.116 µM [falling, full curve, poor fit]

CCc1ccccc1Nc1ccc(C(=O)O)cc1N
cell number change: 19%

O=C(COC(=O)Cn1[nH]c(=O)c2ccccc2c1=O)NNC(=O)c1ccccc1
cell number change: 6.12% | AC50 [1]: 1.03 µM [falling, full curve] | AC50 [2]: 1.03 µM [falling, full curve]

CCCc1c(C(=O)N/N=C/c2sccc2C)nnn1-c1nonc1N
cell number change: 9.16% | AC50 [2]: 29.1 µM [falling, partial curve]

O=C(CCc1nc2ccccc2[nH]1)N1CCN(C(=O)c2ccco2)CC1
cell number change: 12.4% | AC50 [2]: 29.1 µM [falling, single point]

COc1ccc(NS(=O)(=O)c2cccc(C(=O)NNC(=O)c3cccc(NC(C)=O)c3)c2)cc1
cell number change: -28.5% | AC50 [1]: 3.26 µM [falling, full curve, poor fit]

O=C(NN1C(=O)C2C(C1=O)C1C=CC2C12CC2)c1ccncc1 (stereo not drawn)
cell number change: -30.2% | AC50 [1]: 29.1 µM [falling, single point] | AC50 [2]: 16.4 µM [falling, partial curve, poor fit]

CCCn1c(C(O)c2ccc(C)cc2)nc2ccccc21 (stereo not drawn)
cell number change: 21.8% | AC50 [1]: 0.326 µM [rising, full curve, poor fit] | AC50 [2]: 29.1 µM [rising, single point]

O=C(CCCN1C(=O)c2ccccc2C1=O)NCc1cccnc1
cell number change: 12% | AC50 [2]: 10.3 µM [rising, partial curve, poor fit]

Cc1[nH]c2ccccc2c1-c1csc(NC(=O)CN2CCOCC2)n1
cell number change: 8.23%

Cc1ccc(S(=O)(=O)Nc2ccc(Cl)cc2)cc1NC(=O)Cn1cnc2c1c(=O)n(C)c(=O)n2C
cell number change: -14.9% | AC50 [1]: 0.0092 µM [falling, full curve, poor fit] | AC50 [2]: 0.0461 µM [falling, full curve, poor fit]

CCCCc1nc2ccccc2c(C(=O)O)c1C
AC50 [2]: 4.11 µM [rising, partial curve]

O=C(Nc1cc(S(=O)(=O)Nc2ccccc2Cl)ccc1O)c1cc2c(s1)CCCC2
cell number change: 23.6% | AC50 [2]: 6.51 µM [rising, single point]

Cc1ccc(N=Nc2c(C)[nH][nH]c2=O)c(C)c1
cell number change: 125% | AC50 [1]: 5.17 µM [rising, full curve] | AC50 [2]: 0.326 µM [rising, partial curve, poor fit]

O=C(COC(=O)C12CC3CC(CC(C3)C1)C2)NCCc1ccccc1
cell number change: -18.4%

CCCCNS(=O)(=O)c1ccc2nc(-c3cccnc3)cc(C(=O)NCCOC)c2c1
cell number change: -2.05%

COCC1CCCCN1C(=O)c1cccc(OC2CCN(S(C)(=O)=O)CC2)c1 (stereo not drawn)
cell number change: -39.9% | AC50 [1]: 14.6 µM [falling, partial curve]

Cc1cccc(CSc2ncnc3nc[nH]c23)c1
AC50 [2]: 1.16 µM [falling, full curve]

Cc1nonc1NC(=O)CSc1nc2cc(Cl)ccc2c2c1CCCC2
cell number change: 2.91%

COc1ccc(-n2cc(C#N)c(=O)[nH]c2=O)cc1
cell number change: -7.85%

COc1ccc2[nH]cc(CCNC(=O)CCC3CCCCC3)c2c1
AC50 [2]: 13 µM [falling, partial curve, poor fit]

CNC(=O)c1[nH]cnc1C(=O)Nc1cccc(Cl)c1
cell number change: -14.2%

O=C(NCCCO)Nc1ccc2nc(-c3ccco3)c(-c3ccco3)nc2c1
cell number change: 18.2% | AC50 [2]: 0.00461 µM [falling, full curve, poor fit]

CCOc1ccc(S(=O)(=O)NCCC(=O)NCC(c2ccco2)N2CCCCC2)cc1 (stereo not drawn)
cell number change: -4.15% | AC50 [2]: 0.058 µM [falling, full curve, poor fit]

c1ccc(Cc2nnc3sc(-c4cccnc4)nn23)cc1
AC50 [1]: 0.206 µM [rising, partial curve, poor fit] | AC50 [2]: 0.731 µM [rising, partial curve, poor fit]

COc1cccc(CNC(=O)CCCSc2ccccc2)c1
cell number change: -7.89% | AC50 [2]: 5.62 µM [falling, single point]

Cc1ccc(C)c(NS(=O)(=O)c2ccc(-c3coc(C)n3)cc2)c1
cell number change: -20.8%

COc1ccc(CNC(=O)CN2C(=O)COc3ccc(S(=O)(=O)N4CCOCC4)cc32)cc1
cell number change: 15.3%

O=C(NC1CCCC1)c1noc2c1CCCCC2
cell number change: 20.4% | AC50 [2]: 0.0731 µM [falling, full curve, poor fit]

CN1CCN(S(=O)(=O)c2ccc(N3CCN(c4ccccc4O)CC3)c([N+](=O)[O-])c2)CC1
AC50 [2]: 6.51 µM [falling, single point]

COc1ccc(N/C=C/C(=O)c2cc(OC)c(OC)c(OC)c2)cc1
cell number change: 6.57%

COc1ccc(NC(=O)CN(C)C(=O)c2cc(-c3ccc(Cl)cc3)nc3ccccc23)cc1
cell number change: 40.2% | AC50 [1]: 16.4 µM [rising, partial curve, poor fit]

OC(CNCc1ccc(-c2ccccc2)cc1)c1ccccc1 (stereo not drawn)
cell number change: 2.94%

CN(C)c1cccc(C(=O)NC2CCCc3ccccc32)c1 (stereo not drawn)
cell number change: 21.7% | AC50 [1]: 0.291 µM [rising, full curve, poor fit]

NC(=O)c1ccsc1NC(=O)c1cc(=O)c2ccccc2o1
cell number change: -6.24% | AC50 [1]: 4.11 µM [falling, single point] | AC50 [2]: 4.11 µM [falling, single point]

CCOCCCNC(=O)c1ccc(CS(=O)(=O)Cc2ccccc2F)o1
AC50 [2]: 29.1 µM [rising, partial curve]

Cc1ccc(C)c(-c2nc3ccc(N)cc3[nH]2)c1
AC50 [1]: 0.461 µM [rising, full curve] | AC50 [2]: 0.366 µM [rising, full curve]

CCOc1ccc(N(C)S(=O)(=O)c2cc(-c3cc(C)no3)ccc2C)cc1
cell number change: -37.9% | AC50 [1]: 6.51 µM [falling, partial curve, poor fit] | AC50 [2]: 23.1 µM [falling, partial curve]

CCn1nc(C(=O)OCC(=O)N2c3ccccc3CC2C)c2ccccc2c1=O (stereo not drawn)
cell number change: 30% | AC50 [1]: 25.9 µM [rising, single point]

CCc1c(C)nc(N2CCN(Cc3ccccc3)CC2)[nH]c1=O
cell number change: -15.4% | AC50 [2]: 0.116 µM [falling, full curve, poor fit]

CCOC(=O)c1oc2c(c1C)/C(=N/O)CCC2
cell number change: 13.8% | AC50 [2]: 0.651 µM [falling, single point]

Cc1ccc(NC(=O)Cc2nc(-c3c[nH]c(C(=O)N4CCCC4)c3)cs2)c(C)c1
cell number change: 34.4% | AC50 [1]: 0.82 µM [rising, full curve, poor fit] | AC50 [2]: 0.00461 µM [rising, full curve, poor fit]

C=CCn1c(N)c(C(=O)Nc2ccc(C)c(C)c2)c2nc3ccccc3nc21
cell number change: -34.9% | AC50 [1]: 20.6 µM [falling, single point] | AC50 [2]: 29.1 µM [falling, single point]

CCCNC(=O)CSc1nc2ccccc2c(=O)n1CCC
cell number change: 71.2% | AC50 [1]: 9.2 µM [rising, partial curve]

COc1ccc2c(c1OC)C(=O)OC2Nc1ccccn1 (stereo not drawn)
cell number change: 4.46%

O=C(NCc1cccnc1)c1cccnc1-c1nc2ccccc2s1
AC50 [1]: 0.58 µM [rising, single point]

CCc1ccc(-c2nc(CN3CCCC(C(=O)O)C3)c(C)o2)cc1 (stereo not drawn)
cell number change: 32.4% | AC50 [1]: 32.6 µM [rising, single point]

CCN(CC(=O)Nc1ccccc1OC)C(=O)CN1C(=O)NC(C)(c2ccccc2)C1=O (stereo not drawn)
cell number change: -0.56% | AC50 [2]: 0.0058 µM [rising, full curve, poor fit]

CCc1ccc(NC(=O)c2cccc(C(=O)Nc3ccc(CC)cc3)n2)cc1
cell number change: 7.43% | AC50 [1]: 6.51 µM [rising, single point] | AC50 [2]: 29.1 µM [rising, single point]
